One molecule from patent publication US20160311912A1 can be followed below.

Sequences of proteins named here, by UniProt entry; tags and fusion partners are left off. A change or cut given only in a name is not applied to a line headed by its entry.
UniProt P47871: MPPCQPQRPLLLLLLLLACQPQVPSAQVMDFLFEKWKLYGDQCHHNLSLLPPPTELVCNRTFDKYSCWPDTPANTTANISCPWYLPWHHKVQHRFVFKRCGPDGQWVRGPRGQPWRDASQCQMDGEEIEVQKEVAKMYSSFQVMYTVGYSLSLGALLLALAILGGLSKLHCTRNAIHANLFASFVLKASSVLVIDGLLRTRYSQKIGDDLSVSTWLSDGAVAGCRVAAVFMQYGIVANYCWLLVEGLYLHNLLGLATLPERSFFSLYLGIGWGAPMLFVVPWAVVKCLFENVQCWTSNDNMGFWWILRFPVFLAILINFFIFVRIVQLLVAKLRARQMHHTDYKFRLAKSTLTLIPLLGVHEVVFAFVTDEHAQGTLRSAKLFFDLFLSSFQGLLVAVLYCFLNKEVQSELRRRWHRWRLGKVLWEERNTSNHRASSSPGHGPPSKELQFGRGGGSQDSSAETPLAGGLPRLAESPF

The target of this assay is human glucagon receptor in the mAb5:glucagon receptor crystal structure (human) (UniProt P47871). Description: crystal structure of the complex.

No constants are given. Whether binding was seen depends on the method and setting. Some results given as binding are weak or reduced against the parent protein; the word gives no strength. Where a sequence is shown, tags or fusion partners need not be part of it.

B1: anti-glucagon receptor antagonist antibody mAb5 (antibody, V domains shown)
VH: QVQLVQSGAEVKKPGASVKVSCKASGYTFTDFSVHWVRQAPGQGLEWMGWINTETDETSYADDFKGRVTMTRDTSTSTVYMELSSLRSEDTAVYYCVKSRYWSYGPPDYWGQGTTVTVSS
VL: DIQMTQSPSSLSASVGDRVTITCQASQNIRTAVVWYQQKPGKAPKLLIYLASNRHSGVPSRFSGSGSGTDFTFTISSLQPEDIATYYCLQHWTYPFTFGGGTKVEIKR
Consider B1, for which the binding entry is listed as “binds”.
